This note sets out measurements from patent publication US5410052A, “Symmetrical and unsymmetrical polyalkylamine metal complexes for ligand extraction and generation” (The Regents of the University of California, priority 1990, dated 1995).

Data set [1] can be described thus: Coulometry of cobalt PAA carrier compounds (oxygen release). The conditions noted are these: cobalt complex; for O2 Rate: EApp 0.70 V. The source says:
Coulometry techniques allow the determination of the relative energetics and rates of oxygen release. For such experiments, solutions similarly to those outlined above for cyclic voltammetry are placed in a three-electrode electrolysis cell equipped with a Clark-type oxygen probe. […] Each oxidizing potential is held constant with respect to a silver-silver chloride reference electrode. The resulting current is integrated over time to yield the amount of carrier compounded oxidized. By employing the same electrode geometry, solution volume, stirring rate, information about the relative rate and amount of oxygen release (the "O2 rate") can be determined, at a particular applied cell voltage. Eapp from the response of the oxygen probe.
The expected amount of oxygen evolved is given one-half the total integrated charge through the cell divided by F=96,484 C/mole, since theoretically, two electrons are required to oxidize the two cobalt ions and release one oxygen molecule. The ratio of this figure to the actual amount of oxygen produced is "% O2 max", at the minimum voltage, Vmin, required to produce oxygen. In additional, the "voltage window" the difference between the anodic oxygen evolution and cathodic reduction potentials is measured.
A typical cyclic voltammetry trace, for the oxygenated Co(II) complex of PAA No. 72 using a glassy carbon electrode, is shown in FIG. 6. Coulometry data for several cobalt carrier compounds is summarized in Table V. The couliometric data reported on the average of three to five experiments. The standard deviations for O2 rate were +/=0.36 microliters per minute.

Data set [2] is described as follows: Electrochemical oxygen cell (EOC) results for cobalt carrier compounds. Conditions: cobalt complex. From the text: One apparatus for bench-scale or laboratory-scale evaluation of particular carrier compounds for use in practicing the methods according to the invention is illustrated schematically in FIG. 8. The electrochemical oxygen cell (EOC), designated 20, includes generally an oxygen loader 22, an electrochemical cell 24 having an anode compartment 26 and a cathode compartment 28 separated by an ion-permeable membrane 30, and an unloader 32. Carrier fluid is circulated through loader 22, anode compartment 26, unloader 32, cathode compartment 28 and back to loader 22 using the pump 34 with appropriate plastic or glass conduit.
The carrier fluids suitable for use in, for example, electrochemical oxygen cell 20 comprise a carrier compound in a concentration between about 1 mM and 500 mM, usually between about 10 mM and 300 mM, usually between about 50 mM and about 200 mM. Carrier fluids comprising carrier compounds according to the present invention are preferably aqueous and include additional an electrolyte, e.g., sodium chloride, potassium chloride, sodium nitrate, potassium sulfate, at a concentration of between about 0.1M (moles/liter) and about 1.0M usually about 0.5M. The carrier fluids may be titrated or buffered to the desired pH. Buffer salts such as sodium borate, potassium phosphate, sodium phosphate, etc., may be used depending upon the pH desired, the availability of particular salts, and compatibility of particular buffer salts with particular carrier compounds. The buffer salts(s) are generally present in concentrations of between 10 mM and about 0.5M, usually between 50 mM and 100 mM.
Loader 22 is, for example a microporous hydrophobic hollow fiber membrane array such as that which will be described more fully below in connection with FIG. 9. Suitable membrane arrays are manufactured by Bard Cardiosurgery. Inc. of Concord, Calif. These membrane arrays are typically modified to allow fluid flow both inside and outside the hollow fibers in a manner that will be apparent to those skilled in the art.
Cell 24 includes a pair of titanium current collector plates 36, 38, which press against two electrodes 40, 42. Typically, electrodes 40, 42 are carbon felt electrodes, in one example of the cell 24 having dimensions of about 25 cm×10 cm.×0.5 cm. Electrodes 40, 42, and thus anode compartment 26 is cathode compartment 28, are separated by membrane 30 which is an ion-permeable membrane made, for example, of Nafion (sold by DuPont). Cell 24 is assembled in a plexiglass housing (not separately shown) having two halves which are bolted together and sealed with an O-ring or gasket seal (not shown). Cell 24 includes the necessary ports for introducing and removing carrier fluids from anode compartment 26 cathode compartment 28. Cell 24 further includes ports for insertion of reference electrodes 44, 46 which are conveniently, but not necessarily silver-silver chloride reference electrodes. Current collector plates 36, 38 are connected via titanium posts 48, 50 to a potentiostat (not shown) capable of supplying either a constant or a variable current or voltable to cell 24. Suitable potentiostats are available for example, from Princeton Applied Research, Princeton, N.J. Unloader 32, in the embodiment shown in FIG. 8 includes a cylindrical fluid gas separation chamber 52, equipped with a nitrogen sweep gas bubbler 54 near the bottom thereof and an exit port at the top thereof. Alternatively, unloader 32 may be a hollow fiber device such as that described above in connection with loader 22.
In operation, carrier fluid is circulated through loader 22 where it is exposed, through the ligand-permeable membrane, to the fluid from which oxygen is to be extracted. In the typical laboratory-scale electrochemical oxygen cell 20, carrier fluid of oxygenated using air as the external fluid. […]

[3] abbreviates: 10 mM PAA, 30 mL/min, pH 7, 0.9 V.
Setting [4] is: 10 mM PAA, 30 mL/min, pH 7, 1.6 V.
Where [5] appears, read: 150 mM PAA, 58 mL/min, pH 9.18, 0.5 V.
[6] abbreviates: 150 mM PAA, 146 mL/min, pH 9.18, 0.5 V.
Where [7] appears, read: 167 mM PAA, 138 mL/min, pH 10.12, 0.5 V.
Setting [8] is: 10 mM PAA, 30 mL/min, pH 3, 0.9 V.
[9] abbreviates: 10 mM PAA, 30 mL/min, pH 3, 1.6 V.
[10] abbreviates: 75 mM PAA, 95 mL/min, pH 5, 0.5 V.
[11] abbreviates: 100 mM PAA, 30 mL/min, pH 4, 0.9 V.
Where [12] appears, read: 100 mM PAA, 30 mL/min, pH 4, 1.6 V.
Where [13] appears, read: 100 mM PAA, 100 mL/min, pH 4, 0.5 V.
Where [14] appears, read: 100 mM PAA, 120 mL/min, pH 4, 1.6 V.
The mark [15] stands for this setting: 162 mM PAA, 68 mL/min, pH 3, 0.5 V.

As for `c1ccc(CNCCCNCCCNCc2ccccn2)nc1` [compound 64], the “O2 Rate” value in data set [1] was determined as 1.5 ± 0.2 µL/min. For the same molecule, the “% O2 max” value in data set [1] (at the minimum voltage Vmin) turned out to be 42%. Further, the “EC O2 (electrochemical oxygen production rate)” value (“EC O2” below) stood at 0.104 mL/min in data set [2] (setting [3]); 0.279 mL/min in data set [2] (setting [4]); 0.194 mL/min in data set [2] (setting [5]); 0.259 mL/min in data set [2] (setting [6]); 0.341 mL/min in data set [2] (setting [7]). Besides, the Power consumed in data set [2] (setting [3]) was 854 W/L/min; in data set [2] (setting [4]), 570 W/L/min; in data set [2] (setting [5]), 108 W/L/min; in data set [2] (setting [6]), 100 W/L/min; in data set [2] (setting [7]), 99.5 W/L/min. Besides, the “e-/O2 (electrons passed per molecule of O2 produced)” value turned out to be 13 in data set [2] (setting [3]); 5.15 in data set [2] (setting [4]); 2.9 in data set [2] (setting [5]); 2.85 in data set [2] (setting [6]); 2.75 in data set [2] (setting [7]).

Take `c1ccc(CNCCNCCNCc2ccccn2)nc1` [compound 62]: the “O2 Rate” value in data set [1] is 1.4 ± 0.1 µL/min. Further, the “EC O2” value came to 0.143 mL/min in data set [2] (setting [8]); 0.5 mL/min in data set [2] (setting [9]); 0.081 mL/min in data set [2] (setting [10]); 1.15 mL/min in data set [2] (setting [11]); 1.7 mL/min in data set [2] (setting [12]); 0.082 mL/min in data set [2] (setting [13]). In addition, the “EC O2” value in data set [2] (setting [14]) came out at 3.76 mL/min; in data set [2] (setting [15]), 0.133 mL/min. Also, the Power consumed in data set [2] (setting [8]) is listed as 178 W/L/min; in data set [2] (setting [9]), 580 W/L/min; in data set [2] (setting [10]), 86.2 W/L/min; in data set [2] (setting [11]) it was 158 W/L/min; in data set [2] (setting [12]), 550 W/L/min; in data set [2] (setting [13]) it was 99.2 W/L/min. The results for the Power consumed in data set [2] (setting [14]) and in data set [2] (setting [15]) were 260 W/L/min and 99.5 W/L/min, respectively. In addition, the “e-/O2 (electrons passed per molecule of O2 produced)” value in data set [2] (setting [8]) is listed as 2.5; in data set [2] (setting [9]) it was 4.9; in data set [2] (setting [10]), 2.4; in data set [2] (setting [11]) it was 2.3; in data set [2] (setting [12]), 4.8; in data set [2] (setting [13]), 2.5. Besides, the “e-/O2 (electrons passed per molecule of O2 produced)” value in data set [2] (setting [14]) is reported as 2.3; in data set [2] (setting [15]), 2.7.
